According to patent US20110136245A1, “SYNERGISTIC INTERACTIONS OF PHENOLIC COMPOUNDS FOUND IN FOOD” (priority 2009, published 2011):
For at least one compound, name, drawing or mass did not settle the structure.

Legend:
[1] = ORAC assay, phenolic compounds found in strawberries; format: biochemical; conditions: strawberry combinations and individual antioxidants; values per gram
Text: FIG. 5 provides the structures. […] Solubility was checked after thawing and dilution. […] All possible combinations of two compounds were mixed on an equal volume basis after being prepared at the concentrations found in Table 4 to ensure relative concentrations were maintained. Mixtures were then further diluted to match the lowest individual compound molarity to fit the Trolox standard curve. […] The same pattern was repeated for combinations of four: the top three synergistic combinations of three were combined with all possible fourth compounds. No statistically significant increases in antioxidant capacity were found for combinations of four. […] Combinations were prepared on the same day of their ORAC assay. […] Parameters of the assay were as follows: reader temperature: 37 degrees C., cycle number, 120; cycle time, 60 seconds; shaking mode, 3 seconds of orbital shaking before each cycle. A fluorescence filter with an excitation wavelength of 485/20 nm and an emission wavelength of 520/20 nm was used. […] Each mirrored duplicate was averaged and counted as one data point. All samples were measured in quadruplicate (eight wells total) to obtain necessary statistical power. […] The data were analyzed using a Microsoft Excel 2007 (Microsoft, Redmond, Wash., USA) spreadsheet to determine area under the curve and to convert the data to Trolox equivalents based on the Trolox standard curve. […]

[2] = published values (Jorgensen & Skibsted 1998; Foley et al. 1999); cited from earlier work

SMILES	ORAC Value [1]	one-electron reduction potential [2] [V]
Oc1ccc(-c2[o+]c3cc(O)cc(O)c3cc2O)cc1 [pelargonidin]	21,710 mol Trolox Equivalents/g of mixture	–
Oc1cc(O)c2cc(O)c(-c3ccc(O)c(O)c3)[o+]c2c1 [cyanidin]	28,821 mol Trolox Equivalents/g of mixture	–
C[C@@H]1O[C@@H](OC[C@H]2O[C@@H](Oc3c(-c4ccc(O)c(O)c4)oc4cc(O)cc(O)c4c3=O)[C@H](O)[C@@H](O)[C@@H]2O)[C@H](O)[C@H](O)[C@H]1O [rutin]	–	0.4
